Laboratory results as given in PubChem BioAssay AID2685 (National Center for Advancing Translational Sciences (NCATS), 2010).
About 2,100 (0.66%) of roughly 320,000 compounds were called active. This list was built around the results that the source calls inconclusive (neither active nor inactive); the mix of calls is not that of the screen. The call rests on the fitted dose curve; in most records, active means well fitted inhibition curve with a large enough effect in the signal ratio, with a control signal flat (not every such curve was filed as active); inconclusive means small, poorly fitted or top-dose-only effect, or effect the other way, or a change in a side signal; inactive means flat fitted curve, though single readings scatter; the % refers to the signal ratio. A potency beside an inconclusive call is a rough fit, not a confirmed value.

Experiment: qHTS Assay for Lipid Storage Modulators in Drosophila S3 Cells
Details: BODIPY lipid droplet fluorescence, 18-24 h, cells fed with added oleic acid; lipid storage change, negative = inhibition: at 46.1 µM (top of the series) unless noted
Outline: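 Drosophila S3 cells got compounds at several concentrations plus oleic acid (400 uM solution). Laser-scanning cytometry with 488 nm excitation read lipid droplets at 500-530 nm and cells at 575-640 nm. Percent activity was relative to 20 uM Triacsin C.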
On the % scale 0 is the no-effect control and ±100 the full control effect; potency means the concentration at half of the fitted maximal effect.

SMILES | lipid storage change, negative = inhibition | Potency
Cc1ccc(C(=O)Nc2c(N)nc(SCC(=O)Nc3cc(C)on3)[nH]c2=O)cc1 | inconclusive: -31.1% | 
Cc1cccc(C)c1NC(=O)Nc1ccc(S(N)(=O)=O)cc1 | inconclusive: -10.4% | 
Cc1c[n+]([O-])ccc1Oc1ccc([N+](=O)[O-])cc1 |  | inconclusive: 29.1 µM [activator, single point]
Cc1ccsc1/C=N/NC(=O)C1CC(=O)N(c2ccccc2)C1 (stereo not drawn) |  | inconclusive: 0.411 µM [falling, full curve]
Cc1csc2nc(CSc3nc4ccccc4o3)c(Br)n12 |  | inconclusive: 25.9 µM [activator, partial curve, poor fit]
CS(=O)(=O)NCc1nnc(SCC(=O)NC2CCCCC2)n1-c1ccc(F)cc1 |  | inconclusive: 29.1 µM [falling, single point]
C[C@@H](NC(=O)c1nc[nH]c1C(=O)N1CCc2ccccc2C1)c1ccccc1 |  | inconclusive: 16.4 µM [activator, single point]
O=C(COc1ccc2ccccc2c1)N1CCNCC1 | inconclusive: -142% | 
O=CN1CCN(C(=O)c2cccc([N+](=O)[O-])c2)CC1 |  | inconclusive: 29.1 µM [activator, single point]
COC(=O)c1sccc1NC(=O)c1ccncc1 | inconclusive: 8.48% | 
O=C(CN1C(=O)C2CC=CCC2C1=O)Nc1ccc(S(=O)(=O)Nc2ncccn2)cc1 (stereo not drawn) | inconclusive: 18.7% | 
CCCCNC(=O)c1ccc(CS(=O)(=O)c2ccc(C)cc2)o1 | inconclusive: -13.1% | 
COC(=O)c1cn(NC(=O)Cn2nc([N+](=O)[O-])c(Br)c2C)c(=O)c2ccccc12 | inconclusive: 15.6% | 
CCn1c(SCC(=O)Nc2sc3c(c2C#N)CCCC3)nnc1-c1ccco1 |  | inconclusive: 29.1 µM [rising, partial curve]
O=c1c(Cl)c(NCCO)cnn1-c1cccc(Cl)c1 |  | inconclusive: 3.66 µM [falling, full curve]
Cc1cccc(NC(=O)CNC(=O)c2ccco2)n1 | inconclusive: -54.5% [at 0.0737 µM] | 
CC1(C)Cc2nc3sc4c(=O)n(Cc5ccccc5)cnc4c3cc2CS1 | inconclusive: -4.05% | 
CC(NC(=O)CNC(=O)c1ccccc1Br)c1cccs1 (stereo not drawn) | inconclusive | 
O=C(CN1CCCCC1)Nc1ccccc1 |  | inconclusive: 29.1 µM [falling, single point]
C/C(=N\NS(=O)(=O)c1c(C)cc(C)cc1C)c1ccncc1 |  | inconclusive: 20.6 µM [activator, partial curve, poor fit]
COc1ccc(N2CC(C(=O)Nc3cc(C(F)(F)F)ccc3N3CCCC3)CC2=O)c(OC)c1 (stereo not drawn) | inconclusive | 
CCOc1ccc(CCNC(=O)CN2C(=O)CCSc3ccccc32)cc1 | inconclusive: 7.1% | 
O=C(O)c1ccc(S(=O)(=O)N2CCC(c3nc(-c4ccccc4Cl)no3)CC2)cc1 |  | inconclusive: 5.17 µM [falling, full curve, poor fit]
CCOC(=O)/C(=N\Nc1cc(Cl)ccc1Cl)N1CCN(C)CC1 |  | inconclusive: 0.411 µM [activator, full curve, poor fit]

SMILES | lipid storage change, negative = inhibition | Potency
COc1ccc(Cc2nnc(N/N=C/c3ccc(O)cc3)[nH]c2=O)cc1OC | inconclusive: -10.5% | 
COc1cc(C=Nc2cccc([N+](=O)[O-])c2C)ccc1OC(C)=O |  | inconclusive: 29.1 µM [activator, single point]
Cc1ccc(NC(=O)c2cnccn2)nc1 | inconclusive: -65.6% | 
O=C(C1CCCN(S(=O)(=O)c2ccc(Br)s2)C1)N1CCCCCC1 (stereo not drawn) | inconclusive: 7.5% | 
O=C(CCS(=O)(=O)Cc1ccccc1F)NCCc1ccc(Cl)cc1 | inconclusive: 30.1% | 
Cc1cc(N2CCCCC2)nc(SCc2ccc(C#N)cc2)n1 | inconclusive: -25.1% | 
CC1CCN(C(=O)c2ccc(S(=O)(=O)Cc3cc(F)ccc3F)c([N+](=O)[O-])c2)CC1 |  | inconclusive: 29.1 µM [falling, single point]
COC(=O)[C@H](C)NC(=O)COc1ccccc1 | inconclusive: 16.6% | 
CCOc1ccc(Nc2nc(Cc3nnc(SCC(=O)NCC4CCCO4)n3C)cs2)cc1 (stereo not drawn) | inconclusive: 11.1% | 
Cc1ccc(C)c2[nH]c(=O)c(CN(CCN3CCCC3)C(=O)Nc3ccc(F)cc3)cc12 | inconclusive: 36.1% | 
N/C(=N\OC(=O)COc1ccccc1)c1cccnc1 | inconclusive: 30.3% | 
COc1ccccc1CNC(=O)CCCn1nc(C)c2c(C)n(-c3ccc(C)cc3)nc2c1=O | inconclusive: 31.2% | 
O=S(=O)(NCCC1=CCCCC1)c1ccc(F)cc1 |  | inconclusive: 1.64 µM [activator, single point]
O=C(Cc1c(F)cccc1Cl)Nc1nccs1 | inconclusive: 73.5% | 
CCOc1cc(C(=O)N=c2sccn2C)ccc1OC(F)F |  | active: 11.6 µM
C[C@H](C(=O)O)c1n[nH]c(=O)c2ccccc12 |  | inconclusive: 0.0058 µM [falling, full curve]
CN(CCc1ccccc1)Cc1nc(-c2cnccn2)no1 | inconclusive: 1.95% | 
O=C(O)C1=C(OCc2ccc(F)c(F)c2)C(=O)NCC1 | inconclusive: 32.3% | 
CC(C)OC(=O)CCC(=O)Nc1nc2ccccc2s1 |  | inconclusive: 20.6 µM [activator, partial curve]
CCc1ccccc1NC(=O)c1ccoc1C |  | inconclusive: 2.31 µM [rising, full curve, poor fit]
CC(Nc1cccc([N+](=O)[O-])c1)C(=O)Nc1ccc(S(=O)(=O)N2CCCC2)cc1 (stereo not drawn) | inconclusive | 
COc1ccccc1-n1nnnc1SCC(=O)NCC1(N2CCOCC2)CCCCC1 |  | inconclusive: 3.26 µM [falling, single point]
COc1ccc(C)cc1NC(=O)c1cc2c(CO)cnc(C)c2oc1=N | inconclusive: 0.682% | 
CN(Cc1cnn(Cc2ccccc2)c1)C(=O)CN=C1NS(=O)(=O)c2ccccc21 |  | inconclusive: 16.4 µM [activator, single point]

Single entries from the results shown.
For lipid storage change, negative = inhibition, `O=C(Cc1c(F)cccc1Cl)Nc1nccs1` has the entry inconclusive: 73.5%
For lipid storage change, negative = inhibition, `O=C(CCS(=O)(=O)Cc1ccccc1F)NCCc1ccc(Cl)cc1` has the entry inconclusive: 30.1%
